Assay results taken from the supplement of paper PMC12823440, “Inhibitors supercharge kinase turnover through native proteolytic circuits” (Nature, 2025).
Some of the results follow. Hit calls seldom repeat between salt and free forms of one compound.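 In K562 cells expressing nanoluciferase-fused kinases, luminescence was recorded at 4 h intervals between 2 and 18 h, normalized as percent of control with DMSO at 100% and a positive control at 0%. A significant (2 sigma) signal drop marks a time point as decreased. The authors' rule for a hit is not shown and takes in more than the number of time points.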

Sequences of proteins named here, by UniProt entry; tags and fusion partners are left off. A change or cut given only in a name is not applied to a line headed by its entry.
UniProt P28482, whole entry: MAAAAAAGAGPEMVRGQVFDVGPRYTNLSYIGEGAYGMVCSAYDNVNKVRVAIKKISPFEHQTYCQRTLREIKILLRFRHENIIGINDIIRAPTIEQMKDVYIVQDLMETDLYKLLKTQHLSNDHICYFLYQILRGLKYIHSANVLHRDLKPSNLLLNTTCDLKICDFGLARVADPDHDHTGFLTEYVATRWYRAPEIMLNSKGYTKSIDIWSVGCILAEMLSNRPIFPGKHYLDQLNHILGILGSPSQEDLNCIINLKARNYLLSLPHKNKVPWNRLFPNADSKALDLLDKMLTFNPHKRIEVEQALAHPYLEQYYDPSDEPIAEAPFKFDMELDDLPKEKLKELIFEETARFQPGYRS
UniProt P31152, whole entry: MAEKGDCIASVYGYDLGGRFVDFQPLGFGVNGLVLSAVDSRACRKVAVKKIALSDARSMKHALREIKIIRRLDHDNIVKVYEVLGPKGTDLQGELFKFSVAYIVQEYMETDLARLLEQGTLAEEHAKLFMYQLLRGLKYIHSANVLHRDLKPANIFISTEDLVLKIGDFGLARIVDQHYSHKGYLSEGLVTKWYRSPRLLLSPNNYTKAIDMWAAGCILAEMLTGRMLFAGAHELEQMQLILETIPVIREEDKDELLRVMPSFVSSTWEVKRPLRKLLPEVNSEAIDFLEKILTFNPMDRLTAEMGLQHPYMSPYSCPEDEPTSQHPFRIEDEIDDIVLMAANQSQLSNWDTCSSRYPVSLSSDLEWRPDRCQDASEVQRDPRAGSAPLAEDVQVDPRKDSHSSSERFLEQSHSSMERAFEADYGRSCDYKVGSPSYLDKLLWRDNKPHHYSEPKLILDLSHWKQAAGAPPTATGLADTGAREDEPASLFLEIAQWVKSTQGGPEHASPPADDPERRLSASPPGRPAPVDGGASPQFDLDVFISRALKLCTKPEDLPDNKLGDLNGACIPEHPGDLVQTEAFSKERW
UniProt Q9BUB5: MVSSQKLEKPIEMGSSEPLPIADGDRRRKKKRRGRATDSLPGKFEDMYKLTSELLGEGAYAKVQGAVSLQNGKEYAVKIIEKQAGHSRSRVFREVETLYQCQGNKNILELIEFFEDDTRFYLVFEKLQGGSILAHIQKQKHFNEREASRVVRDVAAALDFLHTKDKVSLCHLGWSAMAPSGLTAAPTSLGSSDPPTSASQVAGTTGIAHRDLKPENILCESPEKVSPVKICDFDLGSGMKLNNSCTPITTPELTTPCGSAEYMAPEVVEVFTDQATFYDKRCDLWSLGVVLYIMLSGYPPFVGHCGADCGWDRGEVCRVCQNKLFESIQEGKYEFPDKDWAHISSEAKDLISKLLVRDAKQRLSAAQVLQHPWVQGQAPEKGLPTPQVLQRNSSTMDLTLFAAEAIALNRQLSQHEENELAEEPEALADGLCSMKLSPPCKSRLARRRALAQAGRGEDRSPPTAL
UniProt Q16288, whole entry, looked up: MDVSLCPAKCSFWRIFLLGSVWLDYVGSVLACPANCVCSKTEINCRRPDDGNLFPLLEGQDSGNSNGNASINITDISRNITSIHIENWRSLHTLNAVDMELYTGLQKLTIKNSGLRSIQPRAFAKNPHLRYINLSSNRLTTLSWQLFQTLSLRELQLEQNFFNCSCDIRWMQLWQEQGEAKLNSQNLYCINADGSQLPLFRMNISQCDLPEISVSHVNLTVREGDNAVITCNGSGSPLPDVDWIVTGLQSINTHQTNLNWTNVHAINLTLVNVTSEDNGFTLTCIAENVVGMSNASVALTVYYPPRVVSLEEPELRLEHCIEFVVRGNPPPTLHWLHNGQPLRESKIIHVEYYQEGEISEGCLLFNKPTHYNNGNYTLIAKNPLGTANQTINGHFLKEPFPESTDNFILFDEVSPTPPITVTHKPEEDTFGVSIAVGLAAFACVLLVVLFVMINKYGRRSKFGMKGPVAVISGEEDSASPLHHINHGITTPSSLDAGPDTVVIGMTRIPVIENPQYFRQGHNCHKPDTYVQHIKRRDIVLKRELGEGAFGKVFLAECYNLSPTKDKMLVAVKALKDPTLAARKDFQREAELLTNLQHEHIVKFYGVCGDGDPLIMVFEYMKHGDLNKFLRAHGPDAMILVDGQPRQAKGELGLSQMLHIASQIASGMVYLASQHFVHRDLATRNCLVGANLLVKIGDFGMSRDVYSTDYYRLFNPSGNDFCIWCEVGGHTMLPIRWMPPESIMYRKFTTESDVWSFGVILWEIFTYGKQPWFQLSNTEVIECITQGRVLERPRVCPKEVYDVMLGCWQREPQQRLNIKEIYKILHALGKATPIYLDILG
UniProt Q96KB5: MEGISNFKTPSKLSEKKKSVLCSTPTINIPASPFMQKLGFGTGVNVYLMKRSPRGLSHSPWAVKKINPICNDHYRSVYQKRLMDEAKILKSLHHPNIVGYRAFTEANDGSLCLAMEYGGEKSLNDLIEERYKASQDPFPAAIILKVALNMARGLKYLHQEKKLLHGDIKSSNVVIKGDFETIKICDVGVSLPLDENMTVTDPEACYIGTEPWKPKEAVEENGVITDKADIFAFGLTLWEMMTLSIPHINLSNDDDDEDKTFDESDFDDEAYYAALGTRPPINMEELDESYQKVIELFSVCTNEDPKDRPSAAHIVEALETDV
UniProt P09619, whole entry: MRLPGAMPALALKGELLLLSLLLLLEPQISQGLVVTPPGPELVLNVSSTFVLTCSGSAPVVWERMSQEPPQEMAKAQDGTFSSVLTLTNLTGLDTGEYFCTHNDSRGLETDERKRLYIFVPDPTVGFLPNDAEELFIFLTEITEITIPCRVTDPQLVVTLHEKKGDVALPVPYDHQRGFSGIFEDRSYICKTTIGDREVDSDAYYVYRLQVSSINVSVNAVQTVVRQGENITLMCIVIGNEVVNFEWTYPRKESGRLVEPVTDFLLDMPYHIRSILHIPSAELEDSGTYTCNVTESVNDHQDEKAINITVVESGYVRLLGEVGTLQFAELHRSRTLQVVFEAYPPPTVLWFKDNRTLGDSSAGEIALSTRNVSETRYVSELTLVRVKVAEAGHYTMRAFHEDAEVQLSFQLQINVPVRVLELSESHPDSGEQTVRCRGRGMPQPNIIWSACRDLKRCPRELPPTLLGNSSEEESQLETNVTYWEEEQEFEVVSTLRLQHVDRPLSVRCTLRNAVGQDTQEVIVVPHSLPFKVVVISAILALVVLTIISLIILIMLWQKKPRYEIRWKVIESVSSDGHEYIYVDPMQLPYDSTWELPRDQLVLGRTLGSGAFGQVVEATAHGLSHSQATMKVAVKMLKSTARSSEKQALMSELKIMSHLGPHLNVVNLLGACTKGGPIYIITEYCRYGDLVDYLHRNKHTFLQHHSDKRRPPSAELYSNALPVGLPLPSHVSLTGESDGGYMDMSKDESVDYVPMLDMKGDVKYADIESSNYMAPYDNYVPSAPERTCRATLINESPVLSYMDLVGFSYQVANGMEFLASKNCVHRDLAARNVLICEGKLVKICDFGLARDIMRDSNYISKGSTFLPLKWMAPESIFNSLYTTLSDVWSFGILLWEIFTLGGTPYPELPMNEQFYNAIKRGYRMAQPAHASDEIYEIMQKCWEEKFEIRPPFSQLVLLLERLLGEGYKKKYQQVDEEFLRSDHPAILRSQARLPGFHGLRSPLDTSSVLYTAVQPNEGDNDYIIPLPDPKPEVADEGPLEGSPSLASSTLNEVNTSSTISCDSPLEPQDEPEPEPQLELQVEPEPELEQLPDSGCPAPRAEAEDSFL
UniProt Q15118, whole entry, looked up: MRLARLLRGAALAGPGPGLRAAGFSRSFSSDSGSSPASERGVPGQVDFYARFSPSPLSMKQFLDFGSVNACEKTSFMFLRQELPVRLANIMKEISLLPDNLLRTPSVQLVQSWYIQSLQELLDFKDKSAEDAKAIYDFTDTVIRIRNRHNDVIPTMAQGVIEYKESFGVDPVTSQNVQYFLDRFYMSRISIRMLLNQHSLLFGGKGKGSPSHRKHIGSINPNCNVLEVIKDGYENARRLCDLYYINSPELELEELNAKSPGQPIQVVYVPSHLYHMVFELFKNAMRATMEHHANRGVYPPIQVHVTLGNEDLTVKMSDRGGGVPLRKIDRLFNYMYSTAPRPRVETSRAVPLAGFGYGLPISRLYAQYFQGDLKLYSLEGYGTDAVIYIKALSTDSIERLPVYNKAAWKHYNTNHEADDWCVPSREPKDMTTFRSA
UniProt O15530: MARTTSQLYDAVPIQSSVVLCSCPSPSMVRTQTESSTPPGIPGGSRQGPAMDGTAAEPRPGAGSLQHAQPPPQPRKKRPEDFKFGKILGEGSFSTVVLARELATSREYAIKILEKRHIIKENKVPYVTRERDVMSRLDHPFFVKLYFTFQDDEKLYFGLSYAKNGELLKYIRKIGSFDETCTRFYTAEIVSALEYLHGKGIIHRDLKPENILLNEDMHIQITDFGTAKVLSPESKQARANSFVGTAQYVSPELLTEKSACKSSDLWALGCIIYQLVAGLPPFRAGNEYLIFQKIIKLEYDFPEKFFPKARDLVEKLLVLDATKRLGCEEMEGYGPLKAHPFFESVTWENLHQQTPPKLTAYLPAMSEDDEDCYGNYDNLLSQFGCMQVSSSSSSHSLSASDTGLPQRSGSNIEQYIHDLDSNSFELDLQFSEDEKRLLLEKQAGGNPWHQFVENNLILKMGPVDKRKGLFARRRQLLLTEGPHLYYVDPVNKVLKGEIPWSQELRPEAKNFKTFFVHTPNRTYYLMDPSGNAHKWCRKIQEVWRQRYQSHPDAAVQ
UniProt Q05397, whole entry, looked up: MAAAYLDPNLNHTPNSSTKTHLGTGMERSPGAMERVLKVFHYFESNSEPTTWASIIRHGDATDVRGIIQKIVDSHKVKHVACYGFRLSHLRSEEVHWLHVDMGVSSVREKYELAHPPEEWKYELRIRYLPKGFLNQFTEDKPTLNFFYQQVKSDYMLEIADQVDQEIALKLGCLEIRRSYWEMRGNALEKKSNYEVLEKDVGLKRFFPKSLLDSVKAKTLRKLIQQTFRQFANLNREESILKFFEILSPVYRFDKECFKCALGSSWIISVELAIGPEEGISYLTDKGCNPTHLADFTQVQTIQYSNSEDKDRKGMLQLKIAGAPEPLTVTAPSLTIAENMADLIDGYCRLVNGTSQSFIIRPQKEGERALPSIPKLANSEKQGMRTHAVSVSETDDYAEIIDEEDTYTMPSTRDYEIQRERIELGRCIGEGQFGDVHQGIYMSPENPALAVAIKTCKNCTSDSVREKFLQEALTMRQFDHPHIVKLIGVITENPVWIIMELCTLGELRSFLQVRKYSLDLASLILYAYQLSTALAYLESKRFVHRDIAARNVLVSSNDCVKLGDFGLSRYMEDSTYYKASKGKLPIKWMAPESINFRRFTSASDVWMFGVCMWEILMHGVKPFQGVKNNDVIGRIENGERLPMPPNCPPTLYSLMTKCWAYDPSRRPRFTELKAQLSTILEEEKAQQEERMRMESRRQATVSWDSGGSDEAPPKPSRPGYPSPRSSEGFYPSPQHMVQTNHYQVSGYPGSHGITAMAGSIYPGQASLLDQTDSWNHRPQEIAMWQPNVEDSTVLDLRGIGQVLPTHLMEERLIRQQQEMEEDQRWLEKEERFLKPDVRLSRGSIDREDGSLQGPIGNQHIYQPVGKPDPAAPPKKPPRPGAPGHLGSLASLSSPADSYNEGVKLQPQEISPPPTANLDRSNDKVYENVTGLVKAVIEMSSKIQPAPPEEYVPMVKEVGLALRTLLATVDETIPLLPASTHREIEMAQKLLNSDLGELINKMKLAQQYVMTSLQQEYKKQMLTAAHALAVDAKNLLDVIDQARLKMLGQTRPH

Key:
Test in all cases: kinase-Nluc reporter destabilization hit call (1 = scored as downregulated) (binary); higher = compound decreases kinase abundance
Conditions in all cases: K562; 2-18 h
[1] = biological target: MAPK1 (UniProt P28482)
[2] = biological target: MAPK4 (UniProt P31152)
[3] = biological target: MAPKAPK2 (UniProt P49137)
[4] = biological target: MKNK1 (UniProt Q9BUB5)
[5] = biological target: NTRK2 (UniProt Q16620)
[6] = biological target: NTRK3 (UniProt Q16288)
[7] = biological target: PAK4 (UniProt O96013)
[8] = biological target: PBK (UniProt Q96KB5)
[9] = biological target: PDGFRB (UniProt P09619)
[10] = biological target: PDK1 (UniProt Q15118)
[11] = biological target: PDPK1 (UniProt O15530)
[12] = biological target: PIK4CA (UniProt P42356)
[13] = biological target: PIK4CB (UniProt Q9UBF8)
[14] = biological target: PLK1 (UniProt P53350)
[15] = biological target: PRKAA1 (UniProt Q13131)
[16] = biological target: PRKCA (UniProt P17252)
[17] = biological target: PTK2 (UniProt Q05397)
[18] = biological target: PTK2B (UniProt Q14289)
[19] = biological target: RAF1 (UniProt P04049)
[20] = biological target: RAF1_S257L (clone: RAF1_mut) (UniProt P04049)

Measured: kinase-Nluc reporter destabilization hit call

COc1cc(CCc2cc(-c3nc4ccc(N5CCN(C)CC5)cc4[nH]3)n[nH]2)cc(OC)c1 (10 µM)
active: [20] 1
inactive: [1] 0 | [2] 0 | [3] 0 | [4] 0 | [5] 0 | [6] 0 | [7] 0 | [8] 0 | [9] 0 | [10] 0 | [11] 0 | [12] 0 | [13] 0 | [14] 0 | [15] 0 | [16] 0 | [17] 0 | [18] 0 | [19] 0

CCCS(=O)(=O)Nc1ccc(F)c(C(=O)c2c[nH]c3ncc(Cl)cc23)c1F (10 µM)
inactive: [1] 0 | [2] 0 | [3] 0 | [4] 0 | [5] 0 | [6] 0 | [7] 0 | [8] 0 | [9] 0 | [10] 0 | [11] 0 | [12] 0 | [13] 0 | [14] 0 | [15] 0 | [16] 0 | [17] 0 | [18] 0 | [19] 0 | [20] 0

CNC(=O)c1cccc2cc(Oc3ccnc4cc(OCC5(N)CC5)c(OC)cc34)ccc12 [Lucitanib] (10 µM)
inactive: [1] 0 | [2] 0 | [3] 0 | [4] 0 | [5] 0 | [6] 0 | [7] 0 | [8] 0 | [9] 0 | [10] 0 | [11] 0 | [12] 0 | [13] 0 | [14] 0 | [15] 0 | [16] 0 | [17] 0 | [18] 0 | [19] 0 | [20] 0

CCCCC[C@H](O)CC(=O)CCc1ccc(O)c(OC)c1 [[6]-Gingerol] (10 µM)
inactive: [1] 0 | [2] 0 | [3] 0 | [4] 0 | [5] 0 | [6] 0 | [7] 0 | [8] 0 | [9] 0 | [10] 0 | [11] 0 | [12] 0 | [13] 0 | [14] 0 | [15] 0 | [16] 0 | [17] 0 | [18] 0 | [19] 0 | [20] 0

CN(C)CCOc1ccc(-c2nc(-c3ccncc3)c(-c3ccc4c(c3)CC/C4=N\O)[nH]2)cc1 (10 µM)
inactive: [1] 0 | [2] 0 | [3] 0 | [4] 0 | [5] 0 | [6] 0 | [7] 0 | [8] 0 | [9] 0 | [10] 0 | [11] 0 | [12] 0 | [13] 0 | [14] 0 | [15] 0 | [16] 0 | [17] 0 | [18] 0 | [19] 0 | [20] 0

CCN1C(=O)N(c2c(F)c(OC)cc(OC)c2F)Cc2cnc3[nH]c(CN4CCOCC4)cc3c21 [Pemigatinib] (10 µM)
inactive: [1] 0 | [2] 0 | [3] 0 | [4] 0 | [5] 0 | [6] 0 | [7] 0 | [8] 0 | [9] 0 | [10] 0 | [11] 0 | [12] 0 | [13] 0 | [14] 0 | [15] 0 | [16] 0 | [17] 0 | [18] 0 | [19] 0 | [20] 0

CCN(CCO)CCCOc1ccc2c(Nc3cc(CC(=O)Nc4cccc(F)c4)[nH]n3)ncnc2c1 [Barasertib-HQPA] (10 µM)
inactive: [1] 0 | [2] 0 | [3] 0 | [4] 0 | [5] 0 | [6] 0 | [7] 0 | [8] 0 | [9] 0 | [10] 0 | [11] 0 | [12] 0 | [13] 0 | [14] 0 | [15] 0 | [16] 0 | [17] 0 | [18] 0 | [19] 0 | [20] 0

Cc1nc(N)sc1-c1ccnc(Nc2ccc(N3CCOCC3)cc2)n1 (10 µM)
inactive: [1] 0 | [2] 0 | [3] 0 | [4] 0 | [5] 0 | [6] 0 | [7] 0 | [8] 0 | [9] 0 | [10] 0 | [11] 0 | [12] 0 | [13] 0 | [14] 0 | [15] 0 | [16] 0 | [17] 0 | [18] 0 | [19] 0 | [20] 0

CCN(CC)CCCCNc1ncc2cc(-c3c(Cl)cccc3Cl)c(NC(=O)NC(C)(C)C)nc2n1 (2.5 µM)
inactive: [1] 0 | [2] 0 | [3] 0 | [4] 0 | [5] 0 | [6] 0 | [7] 0 | [8] 0 | [9] 0 | [10] 0 | [11] 0 | [12] 0 | [13] 0 | [14] 0 | [15] 0 | [16] 0 | [17] 0 | [18] 0 | [19] 0 | [20] 0

CN(c1ncccc1CNc1nc(Nc2ccc3c(c2)CC(=O)N3)ncc1C(F)(F)F)S(C)(=O)=O (2.5 µM)
inactive: [1] 0 | [2] 0 | [3] 0 | [4] 0 | [5] 0 | [6] 0 | [7] 0 | [8] 0 | [10] 0 | [11] 0 | [12] 0 | [13] 0 | [14] 0 | [15] 0 | [16] 0 | [19] 0 | [20] 0
